In patent publication US20100234362A1, “USE OF DIAZOXIDE FOR SUPPRESSING THE PLASMA INSULIN LEVEL IN A MAMMAL” (priority 2007, published 2010):
At least one read-out could not be matched to a standard name with certainty.

Tested on: plasma insulin and glucose levels
Experiment: Standardised 500 kCal meal test before and after six months of Diazoxide: plasma glucose and insulin
Format: in vivo, human
Conditions: meal test after 6 months Diazoxide; baseline 1859 ± 56; P<0.02

CC1=NS(=O)(=O)c2cc(Cl)ccc2N1 [Diazoxide, 7-chloro-3-methyl-4H-1,2,4-benzothiadiazine 1,1-dioxide]
AUC glucose: 2404 ± 195 mmol·min/L
